This note sets out measurements from paper PMC6756050.

The target of the assay is GST-tagged acidic region of MDM2. Description: pull-down; purified GST-tagged proteins or GST alone on glutathione-Sepharose beads overnight at 4 °C, His-tagged proteins added for 4 h at 4 °C, three washes, elution, western blot; both purified. (In western blotting, separated proteins are transferred to a membrane and probed.)

No constants are given. Whether binding was seen depends on the method and setting. Sequences can lack the tags named with a protein.

B1: His-tagged HBP1 (protein, UniProt O60381 1-514)
chain: MVWEVKTNQMPNAVQKLLLVMDKRASGMNDSLELLQCNENLPSSPGYNSCDEHMELDDLPELQAVQSDPTQSGMYQLSSDVSHQEYPRSSWNQNTSDIPETTYRENEVDWLTELANIATSPQSPLMQCSFYNRSSPVHIIATSKSLHSYARPPPVSSSSKSEPAFPHHHWKEETPVRHERANSESESGIFCMSSLSDDDDLGWCNSWPSTVWHCFLKGTRLCFHKGSNKEWQDVEDFARAEGCDNEEDLQMGIHKGYGSDGLKLLSHEESVSFGESVLKLTFDPGTVEDGLLTVECKLDHPFYVKNKGWSSFYPSLTVVQHGIPCCEVHIGDVCLPPGHPDAINFDDSGVFDTFKSYDFTPMDSSAVYVLSSMARQRRASLSCGGPGGQDFARSGFSKNCGSPGSSQLSSNSLYAKAVKNHSSGTVSATSPNKCKRPMNAFMLFAKKYRVEYTQMYPGKDNRAISVILGDRWKKMKNEERRMYTLEAKALAEEQKRLNPDCWKRKRTNSGSQQH
Consider B1, for which the binding entry is reported as “no binding”.
